PubChem BioAssay AID1224829, NIAID, 2016
The deposit covers about 3,800 reagents; shown is an unselected part. 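Calls cover raised and lowered translocation; gene median uses one vendor's three siRNAs; qiagen siRNAs acted more weakly than ambion siRNAs.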 Unmarked entries are inactive. Reagents against one gene are numbered here. No sequences are given here.

Test: 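Follow-up of TLR4-NF-kappaB regulators using six separate siRNAs for each gene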 (follow-up of hits)
Cells: mouse RAW264.7 G9 macrophage reporter cells
Knock-down reagent: single siRNA against mouse genes, 100 nM
Timing: 2 days of siRNA knock-down, then 40 min of LPS before fixing
Treatment: LPS (Salmonella minnesota R595) at 10 ng/ml
Detection: 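High-content images after 40 min LPS exposure; GFP-p65 nucleus to surrounding ring signal ratio, normalised to plate median and non-targeting control wells, expressed as z-score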
Reading the numbers: p65 translocation z-score and gene median z-score, per vendor: higher = more nuclear NF-kappaB p65 after LPS
Active means: 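Active means the replicate-mean z-score lies beyond plus or minus 2, in either direction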
Calls: active = changed p65 translocation (either direction); inactive = no clear change

{"gene knocked down":"Bmp3 (bone morphogenetic protein 3)","reagent":1,"siRNA vendor or control pool":"ambion single siRNA","p65 translocation z-score, replicate mean":"4.61 (active)","p65 translocation z-score, replicate 1":6.12,"p65 translocation z-score, replicate 2":3.11,"gene median z-score, per vendor":-4.6}
{"gene knocked down":"Bmp3 (bone morphogenetic protein 3)","reagent":2,"siRNA vendor or control pool":"ambion single siRNA","gene median z-score, per vendor":-4.6}
{"gene knocked down":"Bmp3 (bone morphogenetic protein 3)","reagent":3,"siRNA vendor or control pool":"ambion single siRNA","p65 translocation z-score, replicate mean":"-13.3 (active)","p65 translocation z-score, replicate 1":-14.3,"p65 translocation z-score, replicate 2":-12.3,"gene median z-score, per vendor":-4.6}
{"gene knocked down":"Bmp3 (bone morphogenetic protein 3)","reagent":4,"siRNA vendor or control pool":"qiagen single siRNA","p65 translocation z-score, replicate mean":1.37,"p65 translocation z-score, replicate 1":0.458,"p65 translocation z-score, replicate 2":2.28,"gene median z-score, per vendor":0.851}
{"gene knocked down":"Bmp3 (bone morphogenetic protein 3)","reagent":5,"siRNA vendor or control pool":"qiagen single siRNA","p65 translocation z-score, replicate mean":1.69,"p65 translocation z-score, replicate 1":1.24,"p65 translocation z-score, replicate 2":2.14,"gene median z-score, per vendor":0.851}
{"gene knocked down":"Bmp3 (bone morphogenetic protein 3)","reagent":6,"siRNA vendor or control pool":"qiagen single siRNA","p65 translocation z-score, replicate mean":"-3.02 (active)","p65 translocation z-score, replicate 1":-1.77,"p65 translocation z-score, replicate 2":-4.28,"gene median z-score, per vendor":0.851}
{"gene knocked down":"Cse1l (chromosome segregation 1 like)","reagent":1,"siRNA vendor or control pool":"ambion single siRNA","p65 translocation z-score, replicate mean":-0.149,"p65 translocation z-score, replicate 1":0.196,"p65 translocation z-score, replicate 2":-0.494,"gene median z-score, per vendor":-0.31}
{"gene knocked down":"Cse1l (chromosome segregation 1 like)","reagent":2,"siRNA vendor or control pool":"ambion single siRNA","p65 translocation z-score, replicate mean":1.08,"p65 translocation z-score, replicate 1":2.28,"p65 translocation z-score, replicate 2":-0.126,"gene median z-score, per vendor":-0.31}
{"gene knocked down":"Cse1l (chromosome segregation 1 like)","reagent":3,"siRNA vendor or control pool":"ambion single siRNA","p65 translocation z-score, replicate mean":"-5.04 (active)","p65 translocation z-score, replicate 1":-3.83,"p65 translocation z-score, replicate 2":-6.25,"gene median z-score, per vendor":-0.31}
{"gene knocked down":"Cse1l (chromosome segregation 1 like)","reagent":4,"siRNA vendor or control pool":"qiagen single siRNA","p65 translocation z-score, replicate mean":"3.52 (active)","p65 translocation z-score, replicate 1":4.22,"p65 translocation z-score, replicate 2":2.82,"gene median z-score, per vendor":0.681}
{"gene knocked down":"Cse1l (chromosome segregation 1 like)","reagent":5,"siRNA vendor or control pool":"qiagen single siRNA","p65 translocation z-score, replicate mean":-0.878,"p65 translocation z-score, replicate 1":0.681,"p65 translocation z-score, replicate 2":-2.44,"gene median z-score, per vendor":0.681}
{"gene knocked down":"Cse1l (chromosome segregation 1 like)","reagent":6,"siRNA vendor or control pool":"qiagen single siRNA","p65 translocation z-score, replicate mean":-0.286,"p65 translocation z-score, replicate 1":-0.286,"gene median z-score, per vendor":0.681}
{"gene knocked down":"Frey1 (Frey regulator of sperm-oocyte fusion 1)","reagent":1,"siRNA vendor or control pool":"ambion single siRNA","p65 translocation z-score, replicate mean":-0.808,"p65 translocation z-score, replicate 1":-0.108,"p65 translocation z-score, replicate 2":-1.51,"gene median z-score, per vendor":-3.19}
{"gene knocked down":"Frey1 (Frey regulator of sperm-oocyte fusion 1)","reagent":2,"siRNA vendor or control pool":"ambion single siRNA","p65 translocation z-score, replicate mean":"-3.19 (active)","p65 translocation z-score, replicate 1":-3.41,"p65 translocation z-score, replicate 2":-2.96,"gene median z-score, per vendor":-3.19}
{"gene knocked down":"Frey1 (Frey regulator of sperm-oocyte fusion 1)","reagent":3,"siRNA vendor or control pool":"ambion single siRNA","p65 translocation z-score, replicate mean":"-5.75 (active)","p65 translocation z-score, replicate 1":-6.16,"p65 translocation z-score, replicate 2":-5.34,"gene median z-score, per vendor":-3.19}
{"gene knocked down":"Pakap (paralemmin A kinase anchor protein)","reagent":1,"siRNA vendor or control pool":"ambion single siRNA","p65 translocation z-score, replicate mean":1.62,"p65 translocation z-score, replicate 1":1.99,"p65 translocation z-score, replicate 2":1.25,"gene median z-score, per vendor":0.491}
{"gene knocked down":"Pakap (paralemmin A kinase anchor protein)","reagent":2,"siRNA vendor or control pool":"ambion single siRNA","p65 translocation z-score, replicate mean":"-2.25 (active)","p65 translocation z-score, replicate 1":-2.47,"p65 translocation z-score, replicate 2":-2.03,"gene median z-score, per vendor":0.491}
{"gene knocked down":"Pakap (paralemmin A kinase anchor protein)","reagent":3,"siRNA vendor or control pool":"ambion single siRNA","p65 translocation z-score, replicate mean":1.35,"p65 translocation z-score, replicate 1":2.97,"p65 translocation z-score, replicate 2":-0.265,"gene median z-score, per vendor":0.491}
{"gene knocked down":"Pakap (paralemmin A kinase anchor protein)","reagent":4,"siRNA vendor or control pool":"qiagen single siRNA","p65 translocation z-score, replicate mean":-1.02,"p65 translocation z-score, replicate 1":-1.24,"p65 translocation z-score, replicate 2":-0.813,"gene median z-score, per vendor":-1.02}
{"gene knocked down":"Pakap (paralemmin A kinase anchor protein)","reagent":5,"siRNA vendor or control pool":"qiagen single siRNA","p65 translocation z-score, replicate mean":"3.34 (active)","p65 translocation z-score, replicate 1":2.06,"p65 translocation z-score, replicate 2":4.62,"gene median z-score, per vendor":-1.02}
{"gene knocked down":"Pakap (paralemmin A kinase anchor protein)","reagent":6,"siRNA vendor or control pool":"qiagen single siRNA","p65 translocation z-score, replicate mean":-1.6,"p65 translocation z-score, replicate 1":-1.55,"p65 translocation z-score, replicate 2":-1.66,"gene median z-score, per vendor":-1.02}
{"gene knocked down":"Pawr (pro-apoptotic WT1 regulator)","reagent":1,"siRNA vendor or control pool":"qiagen single siRNA","p65 translocation z-score, replicate mean":"2.08 (active)","p65 translocation z-score, replicate 1":1.35,"p65 translocation z-score, replicate 2":2.81,"gene median z-score, per vendor":0.825}
{"gene knocked down":"Pawr (pro-apoptotic WT1 regulator)","reagent":2,"siRNA vendor or control pool":"qiagen single siRNA","p65 translocation z-score, replicate mean":1.14,"p65 translocation z-score, replicate 1":0.301,"p65 translocation z-score, replicate 2":1.98,"gene median z-score, per vendor":0.825}
{"gene knocked down":"Pawr (pro-apoptotic WT1 regulator)","reagent":3,"siRNA vendor or control pool":"qiagen single siRNA","p65 translocation z-score, replicate mean":-0.893,"p65 translocation z-score, replicate 1":-0.448,"p65 translocation z-score, replicate 2":-1.34,"gene median z-score, per vendor":0.825}
{"gene knocked down":"Atg3 (autophagy related 3)","reagent":1,"siRNA vendor or control pool":"ambion single siRNA","p65 translocation z-score, replicate mean":1.02,"p65 translocation z-score, replicate 1":1.05,"p65 translocation z-score, replicate 2":0.99,"gene median z-score, per vendor":0.441}
{"gene knocked down":"Atg3 (autophagy related 3)","reagent":2,"siRNA vendor or control pool":"ambion single siRNA","p65 translocation z-score, replicate mean":0.441,"p65 translocation z-score, replicate 1":0.949,"p65 translocation z-score, replicate 2":-0.0671,"gene median z-score, per vendor":0.441}
{"gene knocked down":"Atg3 (autophagy related 3)","reagent":3,"siRNA vendor or control pool":"ambion single siRNA","p65 translocation z-score, replicate mean":-1.39,"p65 translocation z-score, replicate 1":-0.205,"p65 translocation z-score, replicate 2":-2.58,"gene median z-score, per vendor":0.441}
{"gene knocked down":"Atg3 (autophagy related 3)","reagent":4,"siRNA vendor or control pool":"qiagen single siRNA","p65 translocation z-score, replicate mean":1.41,"p65 translocation z-score, replicate 1":0.517,"p65 translocation z-score, replicate 2":2.31,"gene median z-score, per vendor":0.0129}
{"gene knocked down":"Atg3 (autophagy related 3)","reagent":5,"siRNA vendor or control pool":"qiagen single siRNA","p65 translocation z-score, replicate mean":0.464,"p65 translocation z-score, replicate 1":-0.491,"p65 translocation z-score, replicate 2":1.42,"gene median z-score, per vendor":0.0129}
{"gene knocked down":"Atg3 (autophagy related 3)","reagent":6,"siRNA vendor or control pool":"qiagen single siRNA","p65 translocation z-score, replicate mean":"-2.24 (active)","p65 translocation z-score, replicate 1":-2.02,"p65 translocation z-score, replicate 2":-2.45,"gene median z-score, per vendor":0.0129}
{"gene knocked down":"Optn (optineurin)","reagent":1,"siRNA vendor or control pool":"ambion single siRNA","p65 translocation z-score, replicate mean":-1.45,"p65 translocation z-score, replicate 1":-1.09,"p65 translocation z-score, replicate 2":-1.81,"gene median z-score, per vendor":-1.45}
{"gene knocked down":"Optn (optineurin)","reagent":2,"siRNA vendor or control pool":"ambion single siRNA","p65 translocation z-score, replicate mean":"-7.2 (active)","p65 translocation z-score, replicate 1":-8.16,"p65 translocation z-score, replicate 2":-6.23,"gene median z-score, per vendor":-1.45}
{"gene knocked down":"Optn (optineurin)","reagent":3,"siRNA vendor or control pool":"ambion single siRNA","p65 translocation z-score, replicate mean":0.734,"p65 translocation z-score, replicate 1":1.09,"p65 translocation z-score, replicate 2":0.377,"gene median z-score, per vendor":-1.45}
{"gene knocked down":"Optn (optineurin)","reagent":4,"siRNA vendor or control pool":"qiagen single siRNA","p65 translocation z-score, replicate mean":0.725,"p65 translocation z-score, replicate 1":-0.773,"p65 translocation z-score, replicate 2":2.22,"gene median z-score, per vendor":-1.2}
{"gene knocked down":"Optn (optineurin)","reagent":5,"siRNA vendor or control pool":"qiagen single siRNA","p65 translocation z-score, replicate mean":-1.15,"p65 translocation z-score, replicate 1":-1.62,"p65 translocation z-score, replicate 2":-0.669,"gene median z-score, per vendor":-1.2}
{"gene knocked down":"Optn (optineurin)","reagent":6,"siRNA vendor or control pool":"qiagen single siRNA","p65 translocation z-score, replicate mean":"-2.82 (active)","p65 translocation z-score, replicate 1":-1.69,"p65 translocation z-score, replicate 2":-3.96,"gene median z-score, per vendor":-1.2}

In a second layout: results already given.
gene knocked down,reagent,siRNA vendor or control pool,"p65 translocation z-score, replicate mean","p65 translocation z-score, replicate 1","p65 translocation z-score, replicate 2","gene median z-score, per vendor"
Cse1l (chromosome segregation 1 like),2,ambion single siRNA,1.08,2.28,-0.126,-0.31
Cse1l (chromosome segregation 1 like),3,ambion single siRNA,-5.04 (active),-3.83,-6.25,-0.31
Cse1l (chromosome segregation 1 like),4,qiagen single siRNA,3.52 (active),4.22,2.82,0.681
